Results are given in words; binding and its absence hold for the method and conditions named. In cells and extracts the contact can be indirect. Some entries that bind do so weakly or less than the wild type. Sequences can lack the tags named with a protein.
T1: Zeb1/GFP fusion protein (UniProt P37275)
T1 sequence: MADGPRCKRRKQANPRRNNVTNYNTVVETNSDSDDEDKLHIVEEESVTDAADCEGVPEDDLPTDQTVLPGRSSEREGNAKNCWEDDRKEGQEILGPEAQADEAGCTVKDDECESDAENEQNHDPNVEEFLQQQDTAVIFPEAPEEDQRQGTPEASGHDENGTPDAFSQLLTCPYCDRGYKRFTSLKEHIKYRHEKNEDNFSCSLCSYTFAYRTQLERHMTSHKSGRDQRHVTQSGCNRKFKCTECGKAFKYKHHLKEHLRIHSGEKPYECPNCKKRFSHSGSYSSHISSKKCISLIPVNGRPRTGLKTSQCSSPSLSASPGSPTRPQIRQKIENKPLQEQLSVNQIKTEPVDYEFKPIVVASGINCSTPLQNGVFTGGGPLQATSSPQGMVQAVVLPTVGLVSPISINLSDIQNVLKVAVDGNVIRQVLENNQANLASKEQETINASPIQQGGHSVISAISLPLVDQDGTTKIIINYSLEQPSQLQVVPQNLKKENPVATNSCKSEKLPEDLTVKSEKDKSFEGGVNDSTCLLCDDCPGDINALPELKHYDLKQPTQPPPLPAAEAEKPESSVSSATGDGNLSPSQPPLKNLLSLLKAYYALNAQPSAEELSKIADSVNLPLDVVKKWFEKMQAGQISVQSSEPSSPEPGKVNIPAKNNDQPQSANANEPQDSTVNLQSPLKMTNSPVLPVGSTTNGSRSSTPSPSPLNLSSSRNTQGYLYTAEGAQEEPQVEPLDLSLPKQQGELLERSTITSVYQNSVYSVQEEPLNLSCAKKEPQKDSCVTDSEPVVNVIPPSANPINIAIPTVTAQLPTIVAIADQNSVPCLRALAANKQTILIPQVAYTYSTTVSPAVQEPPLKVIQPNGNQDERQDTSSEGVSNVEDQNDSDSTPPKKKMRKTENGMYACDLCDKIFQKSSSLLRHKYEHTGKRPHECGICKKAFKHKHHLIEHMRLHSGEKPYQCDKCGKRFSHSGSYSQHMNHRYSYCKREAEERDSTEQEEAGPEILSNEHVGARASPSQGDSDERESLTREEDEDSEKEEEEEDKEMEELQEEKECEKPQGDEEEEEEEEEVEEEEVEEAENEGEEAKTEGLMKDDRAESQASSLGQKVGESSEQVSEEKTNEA

Sequences of proteins named here, by UniProt entry; tags and fusion partners are left off.
UniProt Q15717: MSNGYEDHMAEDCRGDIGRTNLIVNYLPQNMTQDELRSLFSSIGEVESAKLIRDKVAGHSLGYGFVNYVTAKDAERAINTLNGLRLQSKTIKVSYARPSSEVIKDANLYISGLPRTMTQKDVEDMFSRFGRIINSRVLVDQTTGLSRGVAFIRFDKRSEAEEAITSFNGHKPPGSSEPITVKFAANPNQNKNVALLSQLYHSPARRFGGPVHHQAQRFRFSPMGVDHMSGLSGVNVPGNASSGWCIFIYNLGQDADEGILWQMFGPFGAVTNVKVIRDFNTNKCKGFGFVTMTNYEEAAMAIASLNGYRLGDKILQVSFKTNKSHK

B1: E3 ubiquitin-protein ligase TRIM33 (TRIM33) (protein, UniProt Q9UPN9 1-1127)
chain: MAENKGGGEAESGGGGSGSAPVTAGAAGPAAQEAEPPLTAVLVEEEEEEGGRAGAEGGAAGPDDGGVAAASSGSAQAASSPAASVGTGVAGGAVSTPAPAPASAPAPGPSAGPPPGPPASLLDTCAVCQQSLQSRREAEPKLLPCLHSFCLRCLPEPERQLSVPIPGGSNGDIQQVGVIRCPVCRQECRQIDLVDNYFVKDTSEAPSSSDEKSEQVCTSCEDNASAVGFCVECGEWLCKTCIEAHQRVKFTKDHLIRKKEDVSESVGASGQRPVFCPVHKQEQLKLFCETCDRLTCRDCQLLEHKEHRYQFLEEAFQNQKGAIENLLAKLLEKKNYVHFAATQVQNRIKEVNETNKRVEQEIKVAIFTLINEINKKGKSLLQQLENVTKERQMKLLQQQNDITGLSRQVKHVMNFTNWAIASGSSTALLYSKRLITFQLRHILKARCDPVPAANGAIRFHCDPTFWAKNVVNLGNLVIESKPAPGYTPNVVVGQVPPGTNHISKTPGQINLAQLRLQHMQQQVYAQKHQQLQQMRMQQPPAPVPTTTTTTQQHPRQAAPQMLQQQPPRLISVQTMQRGNMNCGAFQAHQMRLAQNAARIPGIPRHSGPQYSMMQPHLQRQHSNPGHAGPFPVVSVHNTTINPTSPTTATMANANRGPTSPSVTAIELIPSVTNPENLPSLPDIPPIQLEDAGSSSLDNLLSRYISGSHLPPQPTSTMNPSPGPSALSPGSSGLSNSHTPVRPPSTSSTGSRGSCGSSGRTAEKTSLSFKSDQVKVKQEPGTEDEICSFSGGVKQEKTEDGRRSACMLSSPESSLTPPLSTNLHLESELDALASLENHVKIEPADMNESCKQSGLSSLVNGKSPIRSLMHRSARIGGDGNNKDDDPNEDWCAVCQNGGDLLCCEKCPKVFHLTCHVPTLLSFPSGDWICTFCRDIGKPEVEYDCDNLQHSKKGKTAQGLSPVDQRKCERLLLYLYCHELSIEFQEPVPASIPNYYKIIKKPMDLSTVKKKLQKKHSQHYQIPDDFVADVRLIFKNCERFNEMMKVVQVYADTQEINLKADSEVAQAGKAVALYFEDKLTEIYSDRTFAPLPEFEQEEDDGEVTEDSDEDFIQPRRKRLKSDERPVHIK

These molecules were tested against T1, Zeb1/GFP fusion protein (assay: co-IP; Zeb1/GFP immunoprecipitated from MCF7 nuclear extracts on anti-GFP llama nano-antibody magnetic beads; partners detected by Western blot; cells wt p53 or shp53, low or high SORE6-mCherry reporter).

binding, binds:
C-terminal-binding protein 2 (CTBP2) (from UniProt P56545 1-445)
ELAV-like protein 1 (ELAVL1) (from UniProt Q15717 1-326)
B1
